Measured values taken from PMC6579765.
Results are given in words; binding and its absence hold for the method and conditions named. In cells and extracts the contact can be indirect. Some results given as binding are weak or reduced against the parent protein; the word gives no strength.

Amino acid sequences for entries named in this document (tags omitted).
UniProt P63158: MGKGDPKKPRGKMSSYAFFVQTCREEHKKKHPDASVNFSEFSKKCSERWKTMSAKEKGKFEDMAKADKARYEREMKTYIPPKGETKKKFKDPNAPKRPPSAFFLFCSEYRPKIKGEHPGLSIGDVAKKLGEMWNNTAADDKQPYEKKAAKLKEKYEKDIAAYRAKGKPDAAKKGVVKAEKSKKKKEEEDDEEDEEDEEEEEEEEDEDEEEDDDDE

Assays:
[1] = target: T1, Toll-like receptor 9 (mouse (endogenous in heart tissue)) (UniProt Q9EQU3); assay: co-IP; heart tissue lysates of WT MI mice; IP with anti-TLR9 (sc-25468) or IgG control on Protein A/G magnetic beads, 4 °C overnight, five washes with lysis buffer; blot for HMGB1
T1 sequence: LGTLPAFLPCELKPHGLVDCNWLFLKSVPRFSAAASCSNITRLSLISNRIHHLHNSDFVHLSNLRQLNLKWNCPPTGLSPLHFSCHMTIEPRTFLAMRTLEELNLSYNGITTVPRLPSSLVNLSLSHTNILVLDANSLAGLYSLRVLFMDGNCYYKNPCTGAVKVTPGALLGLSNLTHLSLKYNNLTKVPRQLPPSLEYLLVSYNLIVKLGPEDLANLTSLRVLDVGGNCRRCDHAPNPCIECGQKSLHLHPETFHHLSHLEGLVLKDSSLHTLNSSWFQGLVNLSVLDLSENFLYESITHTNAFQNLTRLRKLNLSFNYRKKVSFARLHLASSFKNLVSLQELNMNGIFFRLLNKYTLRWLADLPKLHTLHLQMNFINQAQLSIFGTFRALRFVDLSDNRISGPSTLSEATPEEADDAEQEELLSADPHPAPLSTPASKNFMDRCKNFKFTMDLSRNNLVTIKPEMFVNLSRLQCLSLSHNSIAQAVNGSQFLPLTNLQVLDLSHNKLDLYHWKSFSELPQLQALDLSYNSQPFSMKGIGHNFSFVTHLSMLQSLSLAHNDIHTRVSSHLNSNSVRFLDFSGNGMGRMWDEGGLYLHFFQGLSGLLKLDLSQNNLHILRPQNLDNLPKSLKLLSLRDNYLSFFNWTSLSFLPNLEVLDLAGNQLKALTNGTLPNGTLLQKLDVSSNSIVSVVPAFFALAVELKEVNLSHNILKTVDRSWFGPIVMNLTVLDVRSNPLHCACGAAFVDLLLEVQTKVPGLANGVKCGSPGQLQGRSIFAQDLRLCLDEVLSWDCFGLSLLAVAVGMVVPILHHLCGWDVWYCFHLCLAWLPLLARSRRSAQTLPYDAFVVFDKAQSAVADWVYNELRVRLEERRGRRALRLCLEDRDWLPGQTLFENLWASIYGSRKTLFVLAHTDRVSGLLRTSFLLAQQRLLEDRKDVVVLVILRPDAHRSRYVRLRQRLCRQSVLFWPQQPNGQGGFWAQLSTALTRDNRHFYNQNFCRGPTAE

[2] = target: T1, Toll-like receptor 9 (mouse (endogenous in heart tissue)); assay: co-IP; heart tissue lysates of WT sham-operated mice; IP with anti-TLR9 (sc-25468) or IgG control on Protein A/G magnetic beads, 4 °C overnight, five washes with lysis buffer; blot for HMGB1

binding [1]: binds
Substance: High Mobility Group Box 1 (from UniProt P63158 1-215)
binding [2]: no binding (condition: sham-operated WT mice (no MI))
